The text below walks through data of PubChem BioAssay AID1347426 (Functional Genomics Laboratory (NCATS/FGL), 2020).

The campaign covered roughly 31,000 sequences. About 1,400 (4.5%) were called active.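 The calls were made as follows: active = median seed-adjusted z-score above 1 or below -1; inactive = the rest.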 The list shows a part of the results.

This experiment is described as follows: Novel Modifiers of Survival Motor Neuron (SMN) Protein: Gene Identification via Genome-wide siRNA Screen.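 Also: luminescence tracks full-length SMN protein made from the SMN2 reporter.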 The conditions noted are these: HEK293T SMN2-luciferase reporter, siRNA knockdown, 72 h; actives lie on both sides. The procedure, abridged: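 Genome-wide siRNA screen (10418 genes, 3 siRNAs each, 1 pmol per well) by reverse transfection in HEK293T cells stably carrying an SMN2-luciferase reporter; luminescence after 72 hours, normalized to negative-control siRNA, log10-transformed, MAD-scored.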
For orientation: A reporter such as luciferase makes a cellular process visible.
CAAUGGGACCAGUAUGUUATT against PCTP: the median seed-adjusted z-score is inactive: 0.446.
In the case of GGAUAAUGAGUCGGAAGUATT against CNTN4 it was inactive: -0.407; in that of GCAUUUGACUUUUACUCAATT against PBLD, inactive: -0.0809; in that of GACUGUUAAUUCUCGUAUATT against REV3L, inactive: 0.062.
Then CUCGAGUUCCUAUAGCAAATT against UBE3C, with inactive: 0.0341; and GCUUCACCGUGGAAGGUAUTT against APOBEC3C, with inactive: -0.103.
Then GCGCAUAGCUCCGACUACATT against SPON2, with inactive: 0.
For the sequence AGAUCGCCGUAGACAAGAATT against CPSF3L, the median seed-adjusted z-score is inactive: -0.385.
In the case of GACAAGCCUUUGCACUCAATT against SLC25A12 it was inactive: -0.275; in that of CCAUCUCACUUUAAUAAUATT against SNCA, inactive: 0.36; in that of GAUUGCAGCCAAUCCCUUUTT against TBX6, inactive: 0.144.
ACCUAGUGGUAAUGAUGUUTT against TERF1: the median seed-adjusted z-score is inactive: 0.0114.
Then GAUGAAGAAUGAUAAGUCATT against HNRNPC, with active: -2.15.
Then CAUUGGAAUUGUUGGUAAATT against PSMA1, with inactive: -0.145; and CUACCAUUGCAAAACGAAATT against MAP4K5, with inactive: -0.309; and GGUGAGCACGGUUUCCUGATT against ABHD9, with inactive: 0.486.
For GGACAAUUGUCAUCGCAAATT against FAT3, the median seed-adjusted z-score was inactive: 0.246.
As to AGAUAACUUCCACGGCUUATT against LMAN2, the median seed-adjusted z-score is inactive: -0.0921.
In the case of CCUUCGAGGUGACUGGAUATT against SLC26A11 it was inactive: -0.507; in that of GCACCAUAACAUUAGAGAATT against FABP9, inactive: 0.527; in that of AGAUGAAUCUGGAAUCGGUTT against LCN1, inactive: 0.0607.
In the case of GGCUCUAUAUGUGACCGAUTT against MEGF9 it was inactive: -0.0893; in that of CGGUAAAUGUCACUCGUGATT against PRKG1, inactive: 0; in that of GGAUUAUUGGGAUUGUAGATT against SEPHS1, inactive: -0.102.
In the case of CGUUCUCGAUCAAAAGGCATT against SFRS6, the median seed-adjusted z-score is inactive: 0.378.
For the sequence CAGGGCAAAUGAACAGGUUTT against TOMM40L, the median seed-adjusted z-score was inactive: 0.12.
Then CCAUGUCUACAAUAUAAAATT against DNASE2B, with inactive: 0.86; and GGAGAUACAUCGGUAGGUATT against IDUA, with inactive: -0.353.
In the case of AGCAGUUAAUAUCCAGUCATT against MS4A3 it was inactive: 0.189.
In the case of CGUUCUGUACCUGGACCUATT against MFSD3 it was inactive: -0.0706.
For CGGACUAUGUAGAUCUCUUTT against AKR1CL1, the median seed-adjusted z-score was inactive: 0.488.
With GCUACAUCGAGGACCUUAATT against SERPINB1, the median seed-adjusted z-score is inactive: 0.734.
Then CUACUGAUUUAUCUAGAUATT against TNFRSF19, with inactive: -0.672; and CAACAUCUCGGGUAUCCUUTT against SLC34A1, with inactive: 0.139.
For GGCUUAUGAUAACUCAUAUTT against SMC4, the median seed-adjusted z-score was inactive: 0.646.
Then GGUUUUAUGGAGAUACAAATT against UGT2A1, with inactive: 0.213; and CCUAAAGCCUGAAGAAGAATT against TXNDC2, with active: -1.29.
Regarding GCUCCACAACACCACUAAATT against TSSK4, the median seed-adjusted z-score is inactive: -0.162.
Then CCAGUUUCCUACAAGCGAATT against SPG7, with inactive: -0.293; and AGUCACUGCCAGUUAAUAATT against SSX5, with inactive: -0.0517.
Take GAUCGAGACAGUCAAGAUATT against MALT1: the median seed-adjusted z-score was inactive: 0.442.
As to CACUAUUUCGGAUUGGUCATT against USP46, the median seed-adjusted z-score was inactive: -0.964.
GGAUCGGAUUUACCCAUAATT against INPP5F: the median seed-adjusted z-score was inactive: 0.118.
On to GAUAGAGACUAGUAGAUCUTT against TDRD7, for which the median seed-adjusted z-score is inactive: 0.11.
Take GGACCUCCAUCAACUGAGATT against LRRC3B: the median seed-adjusted z-score was inactive: 0.
For GGAUGUCUAAGCACCGUAATT against CTSH, the median seed-adjusted z-score is inactive: -0.81.
Take GGAUAUCACCGAAUGCAAUTT against BRPF3: the median seed-adjusted z-score is inactive: -0.615.
Then AGAUUGUUUUGAGAGGUGATT against SPCS3, with inactive: 0.417; and GCAUUGUCUCUCUUAUGUUTT against SYVN1, with active: -1.41; and GCAGAUAUGUCUAUGACAATT against TMPRSS2, with inactive: 0.433.
Then AGUCAGAAUGGGACUAACATT against NPFFR1, with inactive: -0.613; and GGUUUACUCUGAAUCCCAATT against MAP2K4, with inactive: -0.366.
As to GGCUUUGACAAAUAGCCGATT against KCNH5, the median seed-adjusted z-score is inactive: -0.827.
Then GCUUACUAUUCACUAUGAATT against SNTB2, with inactive: 0.268; and CAUUGAAUCCUUUGACAAATT against GBA3, with inactive: 0.246; and GGUGCACUGUAUUAGCACATT against TFCP2, with inactive: 0.14.
In the case of GGAUCGAGAGUGUAAUUAATT against PAPD5 it was inactive: 0.325.
For GGAGCUACAAGAACCAGCATT against IL21R, the median seed-adjusted z-score is inactive: 0.0068.
Regarding GGAUCUCAUGCUAAGGUGATT against GIP, the median seed-adjusted z-score is inactive: 0.
In the case of GGCCCGAGCUGAUUGACUATT against ACTN1 it was inactive: 0; in that of GGCACUAUGGUGACCAUUATT against PLXNA2, inactive: 0.308; in that of CGGAUGAGGUGAUCCUGAATT against VAC14, inactive: 0.0825.
As for GGCCUUCUGUAAACAGGAATT against NCAN, the median seed-adjusted z-score is inactive: -0.391.
Turning to GGAUGAUAGAGGAAUUGUATT against SKIV2L2, the median seed-adjusted z-score is inactive: 0.642.
Consider GCCCUAGUGUUCCUGCUGATT against IL8RA, for which the median seed-adjusted z-score is inactive: 0.316.
Turning to GUGAUAAAGUAGUUCGAAATT against LMLN, the median seed-adjusted z-score is inactive: 0.
For CAUCGUAACUUUAGAUGAATT against KCNIP1, the median seed-adjusted z-score was inactive: -0.0767.
For the sequence UGUUCAUCUAGUUUCUAUUTT against MRGPRX1, the median seed-adjusted z-score is inactive: -0.188.
Then GCAGGAGCUUUACUAGUUUTT against RAB2A, with inactive: -0.038; and GCAUUGUCGUGGAAGUUCUTT against TMCO3, with inactive: -0.441.
In the case of GAGCAUAGUUUUACAGUCATT against PPM1L it was inactive: 0.4; in that of CACUCUGAGGAGUUACUAATT against ITGAE, inactive: -0.0378.
For CGAUGUAAUUGUCAACAUATT against HTRA4, the median seed-adjusted z-score was inactive: 0.838.
Consider GGCUCAAACUGGGAGUCAATT against POLDIP3, for which the median seed-adjusted z-score was inactive: 0.108.
Then CGACUCUUGUCUACAAGCATT against AIRE, with inactive: 0.308; and GGCUAUGGCGUUUCCAGCATT against HNRNPA1L2, with inactive: 0.732.
Then CGCUGUAUCUGGAGAGGUUTT against B4GALNT4, with inactive: -0.567.
For the sequence GCACCAUCUGAAAACAACATT against UBE2B, the median seed-adjusted z-score is inactive: 0.333.
In the case of GGACAUAGGAGGAGAUGCATT against 9-Mar, the median seed-adjusted z-score was inactive: 0.261.
In the case of GGAAGGGACUAUGAACCGATT against PDZD2 it was inactive: -0.00167.
In the case of CAGACGUAGUAAUCGAUGUTT against DHX57, the median seed-adjusted z-score is inactive: -0.138.
In the case of CAGCUAAGAAAAGACCAUATT against ZNF92 it was inactive: -0.375; in that of CAAGACUUCGAGGCAGAUATT against SCAMP5, inactive: -0.303; in that of GAACUCACCCAGACAAACATT against CREB5, inactive: -0.0542.
As for CUGCUGUUGUUACCGGAAATT against RPGR, the median seed-adjusted z-score was inactive: 0.1.
For the sequence CCAACAUGCUAAUCACCUATT against MAP3K12, the median seed-adjusted z-score is inactive: -0.6.
GGCUGUACCAUUCAACUGUTT against MAP1A: the median seed-adjusted z-score was inactive: -0.17.
Regarding GGAGUUUCGGCCUCACUGATT against NME6, the median seed-adjusted z-score was inactive: -0.304.
Then CUAUAAGAGAUGUCCUAAATT against LRPPRC, with inactive: -0.373.
As to ACAUGCCUGUGAUCGUCAATT against SOX13, the median seed-adjusted z-score is inactive: 0.867.
Then GGGUAUCCCUGGUCAGUAATT against BCAS2, with inactive: -0.639; and CGCCUACGUCGUGUACUAUTT against LRRC3, with inactive: -0.0448.
Regarding GAGACAAGCUCAACGAGAATT against NOP14, the median seed-adjusted z-score is inactive: -0.344.
Take CAUUGUCGGUGUUUCUGCATT against CGA: the median seed-adjusted z-score is inactive: 0.0904.
In the case of GCUGAGUUCUUUCGACCUATT against PEX3, the median seed-adjusted z-score was inactive: 0.142.
Then GGUCUUUGACGUGGUCUUUTT against SBK1, with inactive: 0.0587; and GGGUAUCACUGGAGUCUGATT against NDUFA1, with inactive: 0.182; and GGCUCAAGAAGCACGCGUATT against CRLF1, with inactive: -0.45.
In the case of CCACCAAUCACGAACCUAATT against IL3RA, the median seed-adjusted z-score was inactive: -0.951.
In the case of UGCAGCCUCUCCAAACUUATT against SP6, the median seed-adjusted z-score is inactive: -0.176.
In the case of CCGAUAUUCUUAUAUAUGUTT against ARL3, the median seed-adjusted z-score was inactive: 0.551.
For GGCUGUACAGUUAUAUCAATT against NAPG, the median seed-adjusted z-score was inactive: 0.0128.
Consider AGGUGUUCAUCGGCGUAAATT against GRHL3, for which the median seed-adjusted z-score was inactive: -0.0434.
Turning to GAGUUUAGAGAGAAAAUCATT against TRIM13, the median seed-adjusted z-score is inactive: 0.712.
In the case of AGUGGGAAGUCGUCACUUUTT against ZNF137, the median seed-adjusted z-score is inactive: 0.0526.
Then CCAUUAACAUCGAUAUCAATT against GDPD1, with inactive: 0.527; and GGCUAUAGAAGAGACCUCATT against FCRL2, with inactive: -0.294.
